# Literature values as cited in US8846104B2, “Pharmaceutical compositions for the deterrence and/or prevention of abuse” (priority 2006, dated 2014).
# Where a name gives a salt, the structure may show the parent alone.
smiles,measurement,value
"O=C1CC[C@@]2(O)[C@H]3Cc4ccc(O)c5c4[C@@]2(CCN3CC2CC2)[C@H]1O5 [hydrochloride salt of naltrexone, naltrexone]",soluble in water,about 100 mg/cc
